The full ranking holds about 33,000 sequences; the median of “E-score (-0.5 to 0.5)” is about -0.0034, and the highest 2% start at about 0.25. This is one part of the list.
target: T1, Yap3 (UniProt P38749); assay: PBM E-score (8-mer binding enrichment) (E-score (-0.5 to 0.5)); higher = stronger / more preferred TF binding; conditions: protein concentration: 100 nM; construct: GST-full length
T1 sequence: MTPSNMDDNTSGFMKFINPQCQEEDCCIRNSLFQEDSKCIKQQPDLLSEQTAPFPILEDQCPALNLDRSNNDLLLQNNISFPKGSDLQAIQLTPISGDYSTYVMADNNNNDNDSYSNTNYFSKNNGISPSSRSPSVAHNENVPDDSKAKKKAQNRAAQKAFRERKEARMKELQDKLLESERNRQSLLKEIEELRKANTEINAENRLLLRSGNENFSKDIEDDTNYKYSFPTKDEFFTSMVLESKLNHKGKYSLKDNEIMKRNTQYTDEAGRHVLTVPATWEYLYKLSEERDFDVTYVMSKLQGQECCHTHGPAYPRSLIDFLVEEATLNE
Procedure, shortened: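 Using PURExpress in vitro transcription/translation, GST-tagged yeast transcription factors were made in full-length or DNA-binding-domain form. These were applied at about 100-200 nM to double-stranded universal all-10-mer Agilent arrays, and bound protein was detected with fluorescent anti-GST. Scans were normalised with masliner before the Universal PBM Analysis Suite assigned E-scores to ungapped eight-base words pooled with their reverse complements.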

Sequence	PBM E-score
ATCCGGAT	0.155
ACATCAAA	0.087
CCAAAGGA	-0.024
GGATCGAC	-0.0983
ACCGTACG	-0.0368
ACAACCCT	-0.0399
ATTTGAAA	0.205
ATCAGGAT	0.0628
CTTCAAAG	-0.0592
CCAGGTAG	-0.0675
CAGTCCAC	-0.126
CGACGTAG	-0.305
ATGTACAG	-0.0314
CAATTCGA	-0.102
GCTTATCC	0.131
GCAGATCA	-0.105
CCTCTACG	-0.219
CAATAAGG	0.018
GCAATTAC	0.102
TAATCAAA	0.285
AAACCTAT	0.0756
ATGGCGGC	-0.123
ACTGACCA	-0.125
AAACCAAC	-0.115
ATTATAGG	0.158

Sequence	PBM E-score
AATTACAC	0.187
ATCGTATA	0.114
CAAGTGCA	-0.198
ACACCAAT	0.202
CTATATGA	0.142
TCCTGACA	0.0799
ACCAGGAT	0.172
CCTCCGGC	-0.256
CACCTTCG	-0.146
GGGTATAC	0.034
GCGGACTA	-0.0591
CGAATTAG	0.135
AACGTGCG	-0.0415
ATAAGTGG	0.0608
CGCACCAC	-0.131
CTACTTCA	-0.0894
TCGCTGAA	0.0842
TCGCACAA	-0.00784
AGGCGGAA	0.0524
GGGCGGTA	-0.21
AGGCAACA	-0.0941
ATGTAGGC	0.0427
ATACATTG	0.18
AGAGCGTC	-0.109
GGCAGCTA	0.0423

Sequence	PBM E-score
GTGCATCA	-0.00364
AGGTCAAT	0.147
CCACGGTC	-0.204
ACGACCAT	-0.0854
CCAACCCA	-0.189
ATTCAGGC	-0.009
ACACGGTG	-0.0609
CGGATCGA	-0.088
AAAGGCGA	-0.16
GGCGCTAC	-0.299
TATCTGGA	-0.0885
ACTTCTAC	0.05
AGCGTGTC	-0.219
CGCCGACA	-0.0696
CACGCCGC	-0.212
ACTGTACA	0.0293
TAAAAAAA	0.0893
GGTTGAGA	-0.162
ATTCCTAG	0.126
ACGGCTTG	-0.106
CGGTGTGC	-0.294
AGCGGTAT	0.0682
CAGAACTG	0.157
AATATTCT	0.133
CGGACCCA	-0.232

Sequence	PBM E-score
CAGCCAAC	-0.132
CTATATAA	0.121
AAGGCAGG	-0.146
AACGTGAG	-0.0657
ATGGTGAA	0.0693
AAAACTAA	0.298
GCATTCCA	-0.129
ATGAATCC	0.0786
CTGATGCA	-0.0709
CGCCGGTA	-0.0569
CACGGGAG	-0.203
CAGCCGAA	-0.139
ACGGGCCT	-0.349
AAACTATT	0.221
GATCCGGC	-0.0157
CTCATATA	0.18
CGCATCCC	-0.277
GTTAAGTA	0.0362
AATATCGA	0.233
CGTACGTA	0.148
AGCGCAGA	-0.182
CGCGAAAC	0.121
ATCTAGGA	0.0422
ACAAGCGT	-0.0211
ATGATAAG	0.233

Sequence	PBM E-score
AATAAGGT	0.0306
CCGATGAC	0.0246
CCACTCGG	-0.229
TATACGCA	0.0612
AGTCGCGC	0.119
ACAGCGAT	-0.106
CGTCCTGC	-0.239
CGATGACC	-0.041
ATCTTTAG	0.0351
CCAGTGCG	-0.204
CATGTTGC	-0.0984
ACCAATTC	0.149
CGGCTCCA	-0.066
CAAACAGA	0.176
ATTCCGCC	0.132
AGATTCTA	-0.0221
ACCCGTAT	0.0604
GCGTCTAC	-0.136
AGGCTTAG	-0.0415
GCAAGGAA	0.0864
CAAAGTAC	0.0306
CACGAATA	0.192
AATTAAAC	0.139
CTATCCGC	0.027
GACCCAGC	-0.188

Sequence	PBM E-score
CTTATTGA	0.0574
CAGGTCGG	-0.138
GCAGGAGA	-0.0986
ACCACTTA	0.06
CAGCCATC	-0.068
AGCGGGCG	-0.137
ATACTACG	0.0912
AACATTAC	0.149
CATCAATA	0.111
CGAAACCA	0.112
ACCGATAT	-0.0197
ACGCCGAA	-0.0114
CAATAGGA	0.0855
CGAACCCG	-0.171
ACAAACGC	0.0787
AAGCTTAT	0.0886
AGATGGGC	-0.0911
TAGTAATA	0.204
ACTACCAT	0.11
ACTAGGGA	-0.133
AGATATCT	-0.0346
CTCGGTAA	0.053
AACAACAC	0.303
CCATTCGG	0.0445
AAGAGACT	-0.153

Quoted at random: 2 records from the list, in no set order.
Sequence	PBM E-score
CTATATAA	0.121
CAATAGGA	0.0855

7 entries from above, in markdown.

| Sequence | PBM E-score |
| --- | --- |
| AGCGGGCG | -0.137 |
| ATACTACG | 0.0912 |
| CGAACCCG | -0.171 |
| ACAAACGC | 0.0787 |
| ACTACCAT | 0.11 |
| AGATATCT | -0.0346 |
| CTCGGTAA | 0.053 |

Further results:

Sequence	PBM E-score
CATATGTA	0.108
GTATGTGA	0.0622
CGTAAACA	0.14
GTCAGGTA	0.00896
ATAGAGCA	0.0256
ACGCTACG	-0.0867
GACGTAGC	-0.222
CTGTCCTC	-0.1
CTTCATTA	0.242
CGAGGTAC	-0.138
AAATGGGC	-0.124
CTACTTCC	0.0051
TAGTGATA	-0.0405
ATATTCTA	0.175
AGCTGACG	0.00199
CGACATGA	-0.107
TAGCTTCA	-0.0997
GGACCAAC	-0.182
TGTATACA	0.164
GCAGCCTA	-0.0965
GTGCATTA	0.0488
ATTTAAGC	0.21

Reference: the supplement of paper PMC3334620
